Experimental findings from patent US20190135928A1 (Bristol-Myers Squibb, published 2019) are described below.

These are yes or no findings as the source states them, for the method shown. Some results given as binding are weak or reduced against the parent protein; the word gives no strength. For some of these results: Tags and fused reporters may be left off the sequences shown.

For assay [1], the target named is T1, soluble TL1A-SH6 protein (his tagged) (Homo sapiens (Human)) (UniProt O95150).
T1 sequence: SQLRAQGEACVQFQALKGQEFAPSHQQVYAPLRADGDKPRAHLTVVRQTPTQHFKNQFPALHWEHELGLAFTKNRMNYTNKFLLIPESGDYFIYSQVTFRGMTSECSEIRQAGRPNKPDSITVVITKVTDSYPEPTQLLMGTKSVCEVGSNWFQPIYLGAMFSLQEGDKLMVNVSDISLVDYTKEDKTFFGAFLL
The assay can be described thus: FACS, inhibition of the binding of TL1A SH6 (200 ng/ml) to hDR3 CHO cells, detection with PE anti-6xHis. Background: Flow cytometry measures light scatter and fluorescence of single cells or particles in a stream.

Assay [2] has as its target T2, TL1A expressed on transfected CHO cells (Homo sapiens (Human)) (UniProt O95150).
T2 sequence: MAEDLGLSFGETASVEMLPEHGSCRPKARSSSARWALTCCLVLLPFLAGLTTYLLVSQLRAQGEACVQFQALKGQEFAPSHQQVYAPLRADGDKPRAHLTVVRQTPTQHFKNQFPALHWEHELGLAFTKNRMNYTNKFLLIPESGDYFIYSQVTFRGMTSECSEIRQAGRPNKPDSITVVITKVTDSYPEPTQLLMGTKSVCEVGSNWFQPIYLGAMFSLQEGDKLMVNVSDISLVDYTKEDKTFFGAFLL
The assay can be described thus: FACS titration on TL1A CHO cells, detection with PE anti-human IgG (Fc specific).

Assay [3] addresses T3, recombinant full length human TL1A trimer (human) (UniProt O95150).
T3 sequence: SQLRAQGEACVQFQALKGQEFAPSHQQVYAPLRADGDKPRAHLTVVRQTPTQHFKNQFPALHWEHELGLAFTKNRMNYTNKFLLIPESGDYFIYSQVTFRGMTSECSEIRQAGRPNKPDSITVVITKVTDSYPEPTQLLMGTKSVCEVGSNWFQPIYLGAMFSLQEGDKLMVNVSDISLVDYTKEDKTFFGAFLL
Briefly: HDX-MS of TL1A trimer with 10A4 Fab.

The target in assay [4] is T3, recombinant full length human TL1A trimer (human). The assay can be described thus: HDX-MS of TL1A trimer with 10A4 mAb.

B1: monoclonal antibody 10A4.F7 (antibody, V domains shown)
VH: QLQLQESGPGLVKPSETLSLTCTVSGGSISSRSYYWGWIRQPPGKGLEWIGSIYYNGRTYYNPSLKSRVTISVDTSKNQFSLKLSSVTAADTAVYYCAREDYGDYGAFDIWGQGTMVTVSS
VL: AIQLTQSPSSLSASVGDRVTITCRASQGISSALAWYQQKPGKAPKLLIYDASSLESGVPSRFSGSGSGTDFTLTISSLQPEDFATYYCQQFNSYPLTFGGGTKVEIK
notes: Hybridoma subclone of parental clone 10A4 (KM mouse, human IgG kappa); also called TL1A 2596.10A4.F7
In the case of B1, the binding result in assay [1] and in assay [2] was “binds” each time.

B2: 10A4 Fab (Fab, V domains shown)
VH: QLQLQESGPGLVKPSETLSLTCTVSGGSISSRSYYWGWIRQPPGKGLEWIGSIYYNGRTYYNPSLKSRVTISVDTSKNQFSLKLSSVTAADTAVYYCAREDYGDYGAFDIWGQGTMVTVSS
VL: AIQLTQSPSSLSASVGDRVTITCRASQGISSALAWYQQKPGKAPKLLIYDASSLESGVPSRFSGSGSGTDFTLTISSLQPEDFATYYCQQFNSYPLTFGGGTKVEIK
Take B2: the binding entry in assay [3] is “binds”.

B3: anti-TL1A mAb (10A4) (antibody, V domains shown)
VH: QLQLQESGPGLVKPSETLSLTCTVSGGSISSRSYYWGWIRQPPGKGLEWIGSIYYNGRTYYNPSLKSRVTISVDTSKNQFSLKLSSVTAADTAVYYCAREDYGDYGAFDIWGQGTMVTVSS
VL: AIQLTQSPSSLSASVGDRVTITCRASQGISSALAWYQQKPGKAPKLLIYDASSLESGVPSRFSGSGSGTDFTLTISSLQPEDFATYYCQQFNSYPLTFGGGTKVEIK
For the molecule B3, the binding entry in assay [4] is recorded as “binds”.
